In the supplement of paper PMC10735217 one finds TEAD-luciferase reporter activity data, which are given here for 27 compounds.

The assay has as its system HEK293A TEAD-LUC reporter. In words: TEAD-luciferase reporter activity (YAP activation), robust Z score vs plate; higher = stronger YAP/TEAD activation. Conditions: 24 h. (In a reporter assay the amount or activity of a reporter protein is the signal.)

Where a name gives a salt, the structure may show the parent alone. The list shows a part of the results. This data set is noisy: repeats of one test often differ as much as different tests do.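 Human kidney-derived cells stably carry a construct in which eight TEAD-binding elements drive luciferase, measured by luminescence in a drug-repurposing library screen. A hit is any compound whose signal exceeds the plate mean by more than five robust Z scores.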

Take `COc1ccc(OCCN(C)Cc2cc(C(C)C)c(C)cc2O)cc1`: the TEAD-luciferase reporter activity runs as follows: (compound concentration: 200 nM) inactive: -1.28; (compound concentration: 2 uM) inactive: -0.0973; (compound concentration: 10 uM) inactive: 0.296.

Regarding `Cc1c(-c2ccc(O)cc2)n(Cc2ccc(OCCN3CCCCCC3)cc2)c2ccc(O)cc12` [bazedoxifene acetate], the TEAD-luciferase reporter activity by setting is: (compound concentration: 200 nM) inactive: -0.447; (compound concentration: 2 uM) inactive: -1.35; (compound concentration: 10 uM) inactive: 0.909.

Turning to `O=C(c1ccc(CN2CCOCC2)cc1)N1CCN(C2CC2)CC1` [Bavisant], the TEAD-luciferase reporter activity by setting is: (compound concentration: 200 nM) inactive: 2.74; (compound concentration: 2 uM) inactive: 2.49; (compound concentration: 10 uM) inactive: -0.529.

Regarding `CC(=O)N[C@H](Cc1ccc(O)cc1)C(=O)N[C@H](CCCNC(=N)N)C(=O)N[C@H](Cc1ccccc1)C(N)=O`, the TEAD-luciferase reporter activity was inactive: 0.413 (compound concentration: 200 nM), inactive: 0.898 (compound concentration: 2 uM) and inactive: -0.0439 (compound concentration: 10 uM).

Turning to `O=C1NC(=O)C(Cc2ccc(NC(=O)C3(c4ccccc4)CC3)cc2)S1` (centres undefined), the TEAD-luciferase reporter activity (compound concentration: 200 nM) is inactive: -2.34, the TEAD-luciferase reporter activity (compound concentration: 2 uM) is inactive: -0.733 and the TEAD-luciferase reporter activity (compound concentration: 10 uM) was inactive: 1.51.

On to `CC(C)CC(NC(=O)C(Cc1cnc[nH]1)NC(=O)C(Cc1ccccc1)NC(=O)C1CCCN1C(=O)C(Cc1cnc[nH]1)NC(=O)C1CCCN1)C(=O)NC(CC(C)C)C(=O)NC(C(=O)NC(Cc1ccc(O)cc1)C(=O)NC(CCCCN)C(=O)O)C(C)C` (centres undefined) [H-142, AstraZeneca], for which the TEAD-luciferase reporter activity is, setting by setting: (compound concentration: 200 nM) inactive: -0.173; (compound concentration: 2 uM) inactive: -0.454; (compound concentration: 10 uM) inactive: 1.42.

Consider `CC(C)N1C(=O)Cc2cc(N3CC(C(N)=O)OC3=O)ccc21` (centres undefined), for which the TEAD-luciferase reporter activity runs as follows: (compound concentration: 200 nM) inactive: -1.28; (compound concentration: 2 uM) inactive: 1.59; (compound concentration: 10 uM) inactive: 1.37.

For the compound `Cc1cccc(-c2n[nH]cc2-c2ccc(F)c(-c3cnn(CCO)c3)c2)n1`, the TEAD-luciferase reporter activity runs as follows: (compound concentration: 200 nM) inactive: -0.683; (compound concentration: 2 uM) inactive: 0.165; (compound concentration: 10 uM) inactive: -2.24.

As to `CCOC(=O)Nc1cc2c(c(N)n1)NC(c1ccccc1)=C(C)N2` [mivobulin isethionate], the TEAD-luciferase reporter activity by setting is: (compound concentration: 200 nM) inactive: -2.82; (compound concentration: 2 uM) inactive: 3.1; (compound concentration: 10 uM) active: 8.42.

`CC(C)NCC(O)COc1ccccc1-n1cccc1` (centres undefined) [Isamoltane hemifumarate]: the TEAD-luciferase reporter activity by setting is: (compound concentration: 200 nM) inactive: -2.03; (compound concentration: 10 uM) inactive: 0.0258.

For `CC(C)NCC(O)COc1ccccc1-n1cccc1` (centres undefined) [Isamoltan hydrochloride], the TEAD-luciferase reporter activity (compound concentration: 2 uM) was inactive: -2.04.

Turning to `CC(=O)NCCC(=O)N1CCC(n2c(=O)[nH]c3ccccc32)CC1`, the TEAD-luciferase reporter activity (compound concentration: 200 nM) is inactive: -3.19 and the TEAD-luciferase reporter activity (compound concentration: 10 uM) was inactive: -0.922.

Regarding `CCCCCCCCCCCCC/C=C/[C@H](O)[C@H](COP(=O)([O-])OCC[N+](C)(C)C)NC(=O)CCCCCCCCCCCCCCC`, the TEAD-luciferase reporter activity reads like this: (compound concentration: 200 nM) inactive: 3.88; (compound concentration: 2 uM) inactive: -0.42; (compound concentration: 10 uM) inactive: 0.101.

As for `CCC(C)[C@H](NC(=O)c1ccccc1SSc1ccccc1C(=O)N[C@H](C(=O)O)C(C)CC)C(=O)O` (some centres undefined), the TEAD-luciferase reporter activity (compound concentration: 200 nM) is inactive: 3.17, the TEAD-luciferase reporter activity (compound concentration: 2 uM) is inactive: 0.365 and the TEAD-luciferase reporter activity (compound concentration: 10 uM) is inactive: 0.592.

`COc1ccccc1OCCOCCOCCN1CCCCC1`: the TEAD-luciferase reporter activity (compound concentration: 200 nM) is inactive: -0.466, the TEAD-luciferase reporter activity (compound concentration: 2 uM) was inactive: -1.7 and the TEAD-luciferase reporter activity (compound concentration: 10 uM) is inactive: 0.401.

Take `CC(C)Cc1ccc(C(C)C(=O)NCCO)cc1` (centres undefined) [mabuprofen]: the TEAD-luciferase reporter activity was inactive: -1.29 (compound concentration: 200 nM), inactive: 4.22 (compound concentration: 2 uM) and inactive: -0.561 (compound concentration: 10 uM).

Turning to `CC(C)(C)OC[C@@H]1C(=O)NCCN1C(=O)C[C@H](N)Cc1cc(F)c(F)cc1F`, the TEAD-luciferase reporter activity reads like this: (compound concentration: 200 nM) inactive: 0.812; (compound concentration: 2 uM) inactive: 0.00227; (compound concentration: 10 uM) inactive: 0.265.

Take `NCCCC(N)CC(=O)NC1CNC(=O)C(C2CC(O)NC(N)=N2)NC(=O)/C(=C/NC(N)=O)NC(=O)C(CO)NC(=O)C(CO)NC1=O` (centres undefined): the TEAD-luciferase reporter activity reads like this: (compound concentration: 200 nM) inactive: -0.404; (compound concentration: 2 uM) inactive: 0.843; (compound concentration: 10 uM) inactive: 4.26.

Regarding `Cc1cc(C(=O)N2CCCCc3ccccc32)ccc1CNC(=O)N1CCC[C@H]1C(=O)N(C)C` [fedovapagon], the TEAD-luciferase reporter activity reads like this: (compound concentration: 200 nM) inactive: -2.57; (compound concentration: 2 uM) inactive: -0.969; (compound concentration: 10 uM) inactive: 0.285.

`CCCCC(CC)COC(=O)CC(C(=O)OCC(CC)CCCC)S(=O)(=O)[O-]` (centres undefined): the TEAD-luciferase reporter activity (compound concentration: 200 nM) is inactive: -2.3 and the TEAD-luciferase reporter activity (compound concentration: 10 uM) is inactive: -0.64.

As for `CCCCC(CC)COC(=O)CC(C(=O)OCC(CC)CCCC)S(=O)(=O)[O-]` (centres undefined) [Colace], the TEAD-luciferase reporter activity (compound concentration: 2 uM) was inactive: -0.191.

For `C=CCn1c(=O)c2cnc(Nc3ccc(N4CCN(C)CC4)cc3)nc2n1-c1cccc(C(C)(C)O)n1`, the TEAD-luciferase reporter activity by setting is: (compound concentration: 200 nM) inactive: 0.666; (compound concentration: 2 uM) inactive: -2.55; (compound concentration: 10 uM) inactive: -0.587.

With `COCCN(CCOC)c1nc(C)nc2c1nnn2-c1ccc(C(C)C)cc1Br`, the TEAD-luciferase reporter activity was inactive: 0.272 (compound concentration: 200 nM), inactive: -0.369 (compound concentration: 2 uM) and inactive: -0.297 (compound concentration: 10 uM).

As for `CC#C[C@@H](CC(=O)O)c1ccc(OCC2=CCCC3(CCCCC3)C2)cc1`, the TEAD-luciferase reporter activity runs as follows: (compound concentration: 200 nM) inactive: 1.43; (compound concentration: 2 uM) inactive: -0.521; (compound concentration: 10 uM) inactive: -0.677.

Turning to `Clc1ccc(C(Cn2ccnc2)OCc2ccc(Sc3ccccc3)cc2)c(Cl)c1` (centres undefined) [Fenticonazole nitrate], the TEAD-luciferase reporter activity runs as follows: (compound concentration: 200 nM) inactive: -0.177; (compound concentration: 2 uM) inactive: -0.688; (compound concentration: 10 uM) inactive: -1.44.

`CC(c1ccccc1)C1Nc2cc(Cl)c(S(N)(=O)=O)cc2S(=O)(=O)N1` (centres undefined) [Bemetizide]: the TEAD-luciferase reporter activity is inactive: -1.18 (compound concentration: 200 nM), inactive: -0.37 (compound concentration: 2 uM) and inactive: 0.647 (compound concentration: 10 uM).

On to `Cn1c([N+](=O)[O-])cnc1/C=C/c1ccnc(N)n1` [azanidazole], for which the TEAD-luciferase reporter activity was inactive: 0.439 (compound concentration: 200 nM), inactive: -1.68 (compound concentration: 2 uM) and inactive: -0.212 (compound concentration: 10 uM).
